Measured values reported in paper doi:10.64898/2025.12.25.696480.
These are yes or no findings as the source states them, for the method shown. Binding seen in cells or lysates may run through a third protein. Some results given as binding are weak or reduced against the parent protein; the word gives no strength. Sequences can lack the tags named with a protein.

Target: T1, GST-PIN2HL (Arabidopsis) (UniProt Q9LU77)
T1 sequence: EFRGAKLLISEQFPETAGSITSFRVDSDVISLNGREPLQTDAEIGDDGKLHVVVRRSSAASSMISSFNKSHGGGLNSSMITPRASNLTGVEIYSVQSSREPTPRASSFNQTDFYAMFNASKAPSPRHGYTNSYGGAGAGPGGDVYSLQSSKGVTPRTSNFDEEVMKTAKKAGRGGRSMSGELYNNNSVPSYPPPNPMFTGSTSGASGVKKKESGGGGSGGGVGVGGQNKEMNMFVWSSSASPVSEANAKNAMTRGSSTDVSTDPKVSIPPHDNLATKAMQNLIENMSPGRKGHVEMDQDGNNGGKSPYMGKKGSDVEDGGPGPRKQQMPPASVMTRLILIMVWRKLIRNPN
Experiment: pull-down

B1: PUB41(ΔU)-eGFP (domain or fragment, UniProt Q0WUF6 122-559)
chain: MDKDPNPSPGQSPGPGDKDPEPEILPPVEENSPSDYDAVMEAIRARSKNSMSPTTSLESVTIGQSSYHPVRAVSMFSSSTTSSSSGVFAGADSPFRNAMSFSSTDHSSSPMSPEEEEIFNKLRGTDIFDHEQGLILLRKMTRSSEDLRVSLCTDRILSFLRSLLVSRYNLVQTNAAASVVNLSLEKQNKVKIVRSGFVPLLIDVLKSGTTEAQEHVAGALFSLALEDENKMVIGVLGAVEPLLHALRSSESERARQDAALALYHLSLIPSNRTRLVRAGAVPTLLSMVRSGDSTSRILLVLCNLAACPDGKGAMLDGNAVAILVGKLREVGGGDSEAARENCVAVLLTLCQGNLRFRGLASEAGAEEVLMEVEENGNERVKEKASKILLAMRGGGGGESEFGENAEAREWNRMLEATGLSRTQFQGGQNGGFAYSSQF
  binding: binds
